Values joined by “and” are separate entries in the source; they are usually repeats but may differ in a detail not shown here. Equal values may be shown once. Not every detail of the peptide structures is certain; ends, links or a residue may be inferred. *1 amine or outer side, *2 acyl side, *3 side chain or, on linkers, in order; H or OH if unused. Where a SMILES comes first, the peptide text is derived from it. The star is where a group is joined. BODIPY(FL) = CC1=CC(C)=[N+]2C1=Cc1ccc(CCC(=O)*)n1[B-]2(F)F; X1 = CN(C)c1ccc(/N=N/c2ccc(C(=O)*)cc2)cc1; Ethylenediamine = C(CN[*:2])N[*:1]
Key:
Type in all cases: biochemical
human caspase-3 = molecular target: T1, human caspase-3 (Homo sapiens, UniProt P42574); assay: Fluorescence response to caspase-3; conditions: at 660 nm
T1 sequence (P42574 29-175 limits assumed): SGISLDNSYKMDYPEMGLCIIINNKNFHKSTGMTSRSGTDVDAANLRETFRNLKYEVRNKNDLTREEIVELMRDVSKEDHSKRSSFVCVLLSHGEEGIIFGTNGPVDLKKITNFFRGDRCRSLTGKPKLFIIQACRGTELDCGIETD
T1 sequence (P42574 176-277 limits assumed): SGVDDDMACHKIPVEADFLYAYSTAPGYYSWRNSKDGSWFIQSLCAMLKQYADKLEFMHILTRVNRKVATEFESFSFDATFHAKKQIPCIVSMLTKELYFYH

The chains behind the UniProt entries cited, without tags or fusion partners. Residues count along the entry.
UniProt P10144, 21-247: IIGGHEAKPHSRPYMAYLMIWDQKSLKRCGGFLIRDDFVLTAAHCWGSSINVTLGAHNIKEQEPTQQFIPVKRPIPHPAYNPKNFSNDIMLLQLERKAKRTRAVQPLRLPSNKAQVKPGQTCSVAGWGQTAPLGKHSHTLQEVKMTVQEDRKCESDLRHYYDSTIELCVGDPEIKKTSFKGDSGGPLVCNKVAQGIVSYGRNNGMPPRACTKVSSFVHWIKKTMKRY

hGzmA = molecular target: T2, hGzmA (Homo sapiens, UniProt P12544); assay: Fluorescence response to granzyme A; conditions: at 660 nm
T2 sequence (P12544 29-262): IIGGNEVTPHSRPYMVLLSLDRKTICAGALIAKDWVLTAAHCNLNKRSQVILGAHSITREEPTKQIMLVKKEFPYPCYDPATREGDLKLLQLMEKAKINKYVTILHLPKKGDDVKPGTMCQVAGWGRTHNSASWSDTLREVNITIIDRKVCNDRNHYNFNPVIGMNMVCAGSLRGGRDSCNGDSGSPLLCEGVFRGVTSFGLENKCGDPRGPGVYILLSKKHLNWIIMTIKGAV

granzyme B [1] = molecular target: T3, granzyme B (Homo sapiens, UniProt P10144); assay: Fluorescence assays in stool samples (antibody capture); set-up: assess the activity of granzyme B within each stool sample; from tissue; host or cells: clinical stool supernatants (high and low calprotectin); conditions: 18 h
granzyme B [2] = molecular target: T3, granzyme B; assay: Fluorescence assays in urine samples spiked with granzyme B; set-up: of active recombinant granzyme B to the healthy urine samples
granzyme B [3] = molecular target: T3, granzyme B; assay: Reactivity of NIR probes with granzyme B; conditions: 25 μM probe, 20 nM granzyme B, 2 hours, 37° C., 660 nm
Description: With the probes in hand (Table 4) they were tested for their reactivity with human recombinant granzyme B to identify a lead candidate. Each probe was tested at a concentration of 25 μM against 20 nM granzyme B and fluorescence was recorded over 2 hours at 37° C. (λex: 620 nm, λem: 660 nm).

hGzmB = hGzmB (Homo sapiens, UniProt P10144); assay: Fluorescence assays with recombinant hGzmB; conditions: limit of detection of hGzmB
Description: Fluorescence assays with recombinant enzymes. Fluorescence-based assays with enzymes were performed in buffer-1 (50 mM Tris, 100 mM NaCl, pH 7.4) for GzmB, pro-GzmB, GzmA and HNE, or buffer-2 (25 mM HEPES, 0.1% CHAPS, 10 mM DTT, pH 7.5) for caspases and other enzymes. Probes (25 μM) were added to enzymes (20 nM or at the indicated concentrations) in 384-well plates and their fluorescence emission was recorded at 450 nm (for AMC) or 510 nm (for BODIPY) at 37° C. using a Synergy H1 Hybrid reader (BioTek). In experiments with Ac-IEPD-CHO (50 μM), the inhibitor was pre-incubated for 1 h with GzmB before addition of any probe.

Q: For CCC(C)[C@H](NC(=O)CCCCCN1/C(=C/C=C/C=C/C2=[N+](C)c3ccc(S(=O)(=O)[O-])cc3C2(C)C)C(C)(C)c2cc(S(=O)(=O)[O-])ccc21)C(=O)N[C@@H](CCC(=O)O)C(=O)N1CCC[C@H]1C(=O)N[C@@H](CC(=O)O)C(=O)N[C@@H](C)C(=O)N[C@@H](CC(C)C)C(=O)NCCOCCOCCOCCOCCNC(=O)C1CCN(S(=O)(=O)c2ccccc2-c2c3ccc(=[N+]4CCc5ccccc54)cc-3oc3cc(N4CCc5ccccc54)ccc23)CC1 (some centres unmarked) [R7], which “fluorescence change with Caspase-3” value (human caspase-3) is on record?
A: no increase in fluorescence

Q: And the “fluorescence change with Granzyme A” value (hGzmA)?
A: no increase in fluorescence

Q: What about the “average concentration of granzyme B” value (granzyme B [1]; high calprotectin stool samples) of the same compound?
A: 5687 pg n mL

Q: And the “average concentration of granzyme B” value (granzyme B [1]; low calprotectin stool samples)?
A: 3318 pg/mL

Q: And the “fluorescence increase in urine with spiked granzyme B” value (granzyme B [2]; granzyme B 15 nM, H5 at 510 nm, R7 at 660 nm)?
A: 90 fold

Q: And the LoD (granzyme B [2]; granzyme B spiked in healthy urine, probe 25 μM, 3 hours, 37 C)?
A: 3.1 pM and 99 pg/mL

Q: And the fluorescence fold change (granzyme B [3])?
A: ~80 fold

Q: How did the LoD (hGzmB) turn out when CC[C@H](C)[C@H](NC(=O)CCC1=[N+]2C(=Cc3c(C)cc(C)n3[B-]2(F)F)C=C1)C(=O)N[C@@H](CCC(=O)O)C(=O)N1CCC[C@H]1C(=O)N[C@@H](CC(=O)O)C(=O)NCCNC(=O)c1ccc(/N=N/c2ccc(N(C)C)cc2)cc1 [T1] ({BODIPY(FL)}-IEPD-{Ethylenediamine-X1}) was run?
A: 17 nM
